The text below walks through data of article PMC10598209 (Nature Communications, 2023).

Residue numbers refer to the chain shown, from its start. For some of these results: No signal at the amounts used counts as a negative. Protein sequences can lack the tags named with them. For some of these results: A weaker result is weaker than the reference pair of the same experiment. For some of these results: The exact form of at least one protein or probe is not confirmed. For some of these results: At least one verdict rests on a figure or table, not on a statement of the authors.

Series [1] deals with T1, RSM, RECQ4(348-388) (Homo sapiens) (UniProt O94761).
T1 sequence: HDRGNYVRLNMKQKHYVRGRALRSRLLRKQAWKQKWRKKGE
As to the kind of experiment: fluorescence anisotropy. The note with it: high ionic strength (500 mM NaCl), FA: 25 mM KPO4 pH 6.5, 70 mM KCl (or 500 mM NaCl), 25 C, recombinant protein.

The target of series [2] is T1, RSM, RECQ4(348-388) (Homo sapiens). As to the kind of experiment: ITC. The note with it: 70 mM KCl, pH 6.5, 30 C, Kd agrees with NMR, value not in text, ITC: same low-salt buffer, recombinant protein, label: 5' FITC on strand 1 (FA).
Series [3] concerns the target T2, RSM W379A/W383A (Homo sapiens) (UniProt O94761).
T2 sequence (looked up): T1 sequence with W32A, W36A
Briefly: NMR/droplet formation. To be noted: forms droplets with both G4s, NMR dsDNA: 50 mM NaPO4 pH 6.0, 150 mM NaCl, 298 K, NMR G4: 25 mM KPO4 pH 6.5, 70 mM KCl, recombinant protein.

The target in series [4] is T1, RSM, RECQ4(348-388) (Homo sapiens). Briefly: EMSA. The note with it: EMSA: 40 mM Tris-HCl pH 7.5, 25 mM KCl, 5 mM MgCl2, 2 mM DTT, 2% glycerol, 0.1 mg/mL BSA, 37 C, recombinant protein. In general terms: A gel shift assay detects complexes by their altered migration in electrophoresis.
The target of series [5] is T3, RSM 5E mutant R375E,K376E,K380E,K382E,R384E (Homo sapiens) (UniProt O94761).
T3 sequence (looked up): T1 sequence with R28E, K29E, K33E, K35E, R37E
Briefly: NMR. To be noted: residual binding, no droplets, NMR dsDNA: 50 mM NaPO4 pH 6.0, 150 mM NaCl, 298 K, NMR G4: 25 mM KPO4 pH 6.5, 70 mM KCl, recombinant protein, residues 348-388, folded or branched DNA.

For the sequence AGGGGGGAGGGAGGGTGG [CEB1 parallel G4], the binding result in series [1] (label: 5' FITC or Cy3 (FA, EMSA), folded or branched DNA) is on record as “binds more weakly”. In the case of CAGCGCTCGG (double strand) [ds10], the binding result in series [1] (not reliably detected, label: 5' FITC on strand 1 (FA)) is “no binding”; in series [2], “binds”.

TTGGGTTAGGGTTAGGGTTAGGGA [HT hybrid G4]: the binding result in series [1] (label: 5' FITC (FA), folded or branched DNA) was “binds more weakly”; in series [3] (residues 348-388, label: 5' FITC (FA), folded or branched DNA), “binds”. On to CAGCGCTCGG [ss10], for which the binding result in series [1] (not reliably detected, label: 5' FITC (FA), single-stranded DNA) is “no binding”.

With “AGCTACCATGCCTGCACGAATTAAGCAATTCGTAATCATGGTCATAGCT (double strand) [ds49]”, in series [4] (increasing NaCl, less salt resistant than CEB1, label: 5' FITC on strand 1), the binding result is “binds more weakly”. With TTGGGTGGGTGGGTGGGT [T95-2T parallel G4], the binding result in series [3] (residues 348-388, folded or branched DNA) is “binds”; in series [5], “binds more weakly”. On to GTTAACCCTAACCCTAAGAT [ss20], for which the binding result in series [4] (mixed pool with CEB1 G4, label: 5' FITC, single-stranded DNA) is reported as “binds more weakly”.
